In all, about 320,000 compounds went through this assay and about 22,000 (6.9%) were called active. Inconclusive means that the source gave no clear call. Such entries were picked first, then a sample of the others. Calls follow the shape of the dose curve; as a rule, active = well fitted inhibition curve with a large enough effect; inconclusive = small, poorly fitted or top-dose-only effect, or another doubt; inactive = no such curve, though single readings can be large or run the other way. A potency beside an inconclusive call is a rough fit, not a confirmed value.
Assay: Primary qHTS for delayed death inhibitors of the malarial parasite plastid, 96 hour incubation
Conditions: P. falciparum luciferase reporter growth; series mostly up to 28.7 µM
Outline: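 Luminescence readout: decreased luciferase signal marks inhibited growth of reporter-expressing P. falciparum in infected red cells (2% hematocrit, 0.05% parasitemia final), exposed to compound two generations (96 h, 37 C, 5% CO2).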
% is scaled to controls: 0 for no effect and ±100 for the full control effect; potency is read from the fitted curve at half-maximal effect.

SMILES	Potency	activity change, negative = inhibition
CCC(=O)c1ccc(OCC(=O)NCC2(N3CCCCC3)CCCCC2)cc1	active: 4.65 µM	–
O=C(Nc1ccc(F)cc1)c1ccc(Br)c(S(=O)(=O)N2CCOCC2)c1	inactive	–
COc1cc(NC(=O)c2ccccc2F)c(OC)cc1NC(=O)CN1CCOCC1	inconclusive: 18.5 µM [inhibitor, single point]	–
COc1ccccc1CN1CCC(n2nccc2NC(=O)CCc2ccccc2)CC1	inconclusive: 18.5 µM [inhibitor, single point]	–
O=C(O)c1cccc(Nc2c([N+](=O)[O-])c(=O)oc3ccccc23)c1	inactive	–
COc1cccc(CN(C)C(=O)C2CCC(=O)N(Cc3cccc(F)c3)C2)c1 (centres undefined)	inconclusive: 18.5 µM [inhibitor, single point]	–
Cc1ccc(Nc2nc(C)c3c(n2)CC(C)CC3=O)c(C)c1 (centres undefined)	inconclusive: 0.0738 µM [inhibitor, full curve, poor fit]	–
CCN1C(=NCc2ccccc2)N[C@@H](c2ccccc2)[C@H](C(=O)OC)[C@H]1C	inconclusive: 0.0657 µM [inhibitor, full curve, poor fit]	–
COc1cccc(C(=O)CC(C(=O)O)c2ccc(Cl)cc2)c1 (centres undefined)	inactive	–
CCNc1nnc(SCC(=O)c2cc(C)n(C3CC3)c2C)s1	inconclusive: 3.29 µM [inhibitor, full curve]	–
Cc1ccc(CCNC(=O)CCn2c(=O)c3cccn3c3ccc(F)cc32)cc1	inconclusive: 18.5 µM [inhibitor, single point]	–
COc1ccc(-n2nc3c(N4CCC(C(=O)NCCc5ccco5)CC4)nnc(C)c3c2C)cc1	inactive	–
CC1CCC2(CC1)NC(=O)N(CC(=O)N1CCN(c3ccccc3)CC1)C2=O (centres undefined)	inconclusive: 18.5 µM [inhibitor, single point]	–
CCOC(=O)c1[nH]c(C)c(C(=O)Nc2ccc3c(c2)CCC3)c1C	–	inactive: 1.75% [at 5.75 µM]
COCCCNC(=O)C1CC(=O)N(CCc2ccccc2)C1 (centres undefined)	inconclusive: 10.4 µM [inhibitor, partial curve, poor fit]	–
Cc1c(C(=O)N2CCCC2)c(S(=O)(=O)NCC(C)c2ccccc2)c(C)n1C (centres undefined)	inconclusive: 18.5 µM [inhibitor, single point]	–
Cc1cccc(NC(=O)c2cccc(C(=O)Nc3cccc(C)n3)c2)n1	inactive	–
CN1C(=O)C2C(c3ccc(N(C)C)cc3)NN(Cc3ccccc3)C2C1=O (centres undefined)	–	inactive: -46% [at 1.15 µM]
CS(=O)(=O)N1CCN(c2ccc(C(=O)NC34CC5CC(CC(C5)C3)C4)cc2[N+](=O)[O-])CC1	inconclusive: 4.65 µM [inhibitor, partial curve, poor fit]	–

A draw from above in order of formula weight, low to high:
SMILES	Potency	activity change, negative = inhibition
COc1cccc(C(=O)CC(C(=O)O)c2ccc(Cl)cc2)c1 (centres undefined)	inactive	–
O=C(O)c1cccc(Nc2c([N+](=O)[O-])c(=O)oc3ccccc23)c1	inactive	–
CN1C(=O)C2C(c3ccc(N(C)C)cc3)NN(Cc3ccccc3)C2C1=O (centres undefined)	–	inactive: -46% [at 1.15 µM]
O=C(Nc1ccc(F)cc1)c1ccc(Br)c(S(=O)(=O)N2CCOCC2)c1	inactive	–
COc1ccc(-n2nc3c(N4CCC(C(=O)NCCc5ccco5)CC4)nnc(C)c3c2C)cc1	inactive	–

— PubChem BioAssay AID504834 (National Center for Advancing Translational Sciences (NCATS), 2011)
